These are yes or no findings as the source states them, for the method shown. In cells and extracts the contact can be indirect. Here binding means that the protein was enriched with, or labelled near, the bait; the list need not be complete.

By UniProt entry, the sequences of proteins in these tests, tags left out. Where a name states a change or a piece, a line headed by the entry shows the natural chain unless it says otherwise.
UniProt Q8I3T5: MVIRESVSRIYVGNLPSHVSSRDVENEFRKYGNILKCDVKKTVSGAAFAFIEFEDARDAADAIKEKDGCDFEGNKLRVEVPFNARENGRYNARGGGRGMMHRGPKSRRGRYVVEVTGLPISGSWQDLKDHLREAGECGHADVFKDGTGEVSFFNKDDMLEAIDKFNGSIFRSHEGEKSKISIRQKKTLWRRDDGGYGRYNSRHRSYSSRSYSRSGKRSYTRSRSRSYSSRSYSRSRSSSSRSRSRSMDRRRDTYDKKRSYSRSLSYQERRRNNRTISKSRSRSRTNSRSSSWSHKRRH

The target of the test is Halo-PfSR1 (P. falciparum SR1 fused with a Halo tag at the N-terminus) (P. falciparum) (UniProt Q8I3T5). The test can be described thus: affinity purification with mass spectrometry; Halo-PfSR1 from lysates of tightly synchronized early (20 hpi) and late (36 hpi) stage parasites captured on HaloLink resin overnight at 4°C (lysis: 50 mM Tris-HCl pH 7.5, 150 mM NaCl, 1% Triton X-100, 0.1% sodium deoxycholate); eluates analysed by LC-MS/MS; compared with a mock plasmid expressing only the Halo tag; hits enriched more than 8-fold or found only with Halo-PfSR1 in at least two replicates.

B1: MCM4 (protein, UniProt Q9GR06 1-1005)
chain: MGTPRRRLGQQNNNNNSPFALSSSNIFGSNNEIFGSNFMHTPMSSRRTKNSKSFLNSMLNESRYLNQSNAGSQFIKYGHTPLAIRRIKCARADIGDVGREAFMEDEESGRLPHFIDSNLEQIKELFNQFFDEFNITNYSDVLDFTDEDRSISEYILLHRDNLKVYLAYYGWKMIKFIETGRQNECRLNNTNYEDDDENNENSEGIRNLEHIKSFEIDLTHIFFFNKKLYKLIIEYPSDCISEIDKIISTKYNSLLALVLEGDTRSSSSDKYPLSSTKQDYCRVRFFNKKHKDTPRKLGPNQIETLVCVKGVIIRCSNIIPEMTMAAFKCTSKKRIGVNNYEKCNEEVYEHVIQGEVQEPVTCSNCNNKNTFELWHNNCCFSSKQLIKLSEVTEHLKQGETPQSISIYAYDDLIDYTKPGDTVELTGILKASPVRLNPRSRCYNSVHRTYINVIHIKKENKQKMKLTEQNDTANIILKRNEDGTVEENFEKLNEQGNLLFTTEVIQKMEQLSKDPNIYQRLVDSIAPSIYGRGDIKKGLLCQLFGGSKITDKYNNKYRSEIHILLRGDPSTAKSQLLHYVHKLSPRGIYTSGKGSSSVGLTAFISKDSETKEYILESGAVVLSDKGICCIDEFDKMDDSARAILHEVMEQQTVTIAKAGIVATLNARTSILASANPINSRYDKNKAVVENINLPPSLFSRFDLIYLVIDQANEDEDRKLATVLCKNFSYNPEEEEDEDQEDQEEDEPNYITQQRARKSKGTSRKNERENYYNDGDNDDDDDISNYLNDSNDAQNKRGSWANVNISYDEYNNSSNKKTSKNYLIDSNTLALYIAYCRITCNPIISLESKKIIIEEYIKMRCKEGTKSPTASPRQLEGLVRLSQSLAKMKLKRVVSPEEANEAVRLMNIATFQSLIDPLSGRIDFDQVNLGQTSQHKKKSDLIKDIIMNALVLKNMTKDELLTHCHETIMNDPQHTTSMDRKSFEEAFYDLEKSQEITRLCSGLYKKK
Consider B1, for which the binding result is reported as “binds”.

The values are drawn from PMC8435287.
